From PMC10873312
Like-named read-outs stand apart in the source and are kept apart here. Results are given in words; binding and its absence hold for the method and conditions named. Binding seen in cells or lysates may run through a third protein. Some entries that bind do so weakly or less than the wild type. For some assays here: Tags and fused reporters may be left off the sequences shown.

The chains behind the UniProt entries cited, without tags or fusion partners.
UniProt Q00534: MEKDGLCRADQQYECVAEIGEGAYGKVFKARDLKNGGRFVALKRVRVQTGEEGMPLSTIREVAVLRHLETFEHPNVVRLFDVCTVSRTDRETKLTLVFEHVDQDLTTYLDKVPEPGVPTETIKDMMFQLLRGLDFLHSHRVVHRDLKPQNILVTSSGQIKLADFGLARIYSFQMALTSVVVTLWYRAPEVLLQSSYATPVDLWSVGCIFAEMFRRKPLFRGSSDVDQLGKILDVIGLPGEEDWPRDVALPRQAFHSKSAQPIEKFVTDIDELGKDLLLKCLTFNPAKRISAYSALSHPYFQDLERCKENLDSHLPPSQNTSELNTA
UniProt P27708: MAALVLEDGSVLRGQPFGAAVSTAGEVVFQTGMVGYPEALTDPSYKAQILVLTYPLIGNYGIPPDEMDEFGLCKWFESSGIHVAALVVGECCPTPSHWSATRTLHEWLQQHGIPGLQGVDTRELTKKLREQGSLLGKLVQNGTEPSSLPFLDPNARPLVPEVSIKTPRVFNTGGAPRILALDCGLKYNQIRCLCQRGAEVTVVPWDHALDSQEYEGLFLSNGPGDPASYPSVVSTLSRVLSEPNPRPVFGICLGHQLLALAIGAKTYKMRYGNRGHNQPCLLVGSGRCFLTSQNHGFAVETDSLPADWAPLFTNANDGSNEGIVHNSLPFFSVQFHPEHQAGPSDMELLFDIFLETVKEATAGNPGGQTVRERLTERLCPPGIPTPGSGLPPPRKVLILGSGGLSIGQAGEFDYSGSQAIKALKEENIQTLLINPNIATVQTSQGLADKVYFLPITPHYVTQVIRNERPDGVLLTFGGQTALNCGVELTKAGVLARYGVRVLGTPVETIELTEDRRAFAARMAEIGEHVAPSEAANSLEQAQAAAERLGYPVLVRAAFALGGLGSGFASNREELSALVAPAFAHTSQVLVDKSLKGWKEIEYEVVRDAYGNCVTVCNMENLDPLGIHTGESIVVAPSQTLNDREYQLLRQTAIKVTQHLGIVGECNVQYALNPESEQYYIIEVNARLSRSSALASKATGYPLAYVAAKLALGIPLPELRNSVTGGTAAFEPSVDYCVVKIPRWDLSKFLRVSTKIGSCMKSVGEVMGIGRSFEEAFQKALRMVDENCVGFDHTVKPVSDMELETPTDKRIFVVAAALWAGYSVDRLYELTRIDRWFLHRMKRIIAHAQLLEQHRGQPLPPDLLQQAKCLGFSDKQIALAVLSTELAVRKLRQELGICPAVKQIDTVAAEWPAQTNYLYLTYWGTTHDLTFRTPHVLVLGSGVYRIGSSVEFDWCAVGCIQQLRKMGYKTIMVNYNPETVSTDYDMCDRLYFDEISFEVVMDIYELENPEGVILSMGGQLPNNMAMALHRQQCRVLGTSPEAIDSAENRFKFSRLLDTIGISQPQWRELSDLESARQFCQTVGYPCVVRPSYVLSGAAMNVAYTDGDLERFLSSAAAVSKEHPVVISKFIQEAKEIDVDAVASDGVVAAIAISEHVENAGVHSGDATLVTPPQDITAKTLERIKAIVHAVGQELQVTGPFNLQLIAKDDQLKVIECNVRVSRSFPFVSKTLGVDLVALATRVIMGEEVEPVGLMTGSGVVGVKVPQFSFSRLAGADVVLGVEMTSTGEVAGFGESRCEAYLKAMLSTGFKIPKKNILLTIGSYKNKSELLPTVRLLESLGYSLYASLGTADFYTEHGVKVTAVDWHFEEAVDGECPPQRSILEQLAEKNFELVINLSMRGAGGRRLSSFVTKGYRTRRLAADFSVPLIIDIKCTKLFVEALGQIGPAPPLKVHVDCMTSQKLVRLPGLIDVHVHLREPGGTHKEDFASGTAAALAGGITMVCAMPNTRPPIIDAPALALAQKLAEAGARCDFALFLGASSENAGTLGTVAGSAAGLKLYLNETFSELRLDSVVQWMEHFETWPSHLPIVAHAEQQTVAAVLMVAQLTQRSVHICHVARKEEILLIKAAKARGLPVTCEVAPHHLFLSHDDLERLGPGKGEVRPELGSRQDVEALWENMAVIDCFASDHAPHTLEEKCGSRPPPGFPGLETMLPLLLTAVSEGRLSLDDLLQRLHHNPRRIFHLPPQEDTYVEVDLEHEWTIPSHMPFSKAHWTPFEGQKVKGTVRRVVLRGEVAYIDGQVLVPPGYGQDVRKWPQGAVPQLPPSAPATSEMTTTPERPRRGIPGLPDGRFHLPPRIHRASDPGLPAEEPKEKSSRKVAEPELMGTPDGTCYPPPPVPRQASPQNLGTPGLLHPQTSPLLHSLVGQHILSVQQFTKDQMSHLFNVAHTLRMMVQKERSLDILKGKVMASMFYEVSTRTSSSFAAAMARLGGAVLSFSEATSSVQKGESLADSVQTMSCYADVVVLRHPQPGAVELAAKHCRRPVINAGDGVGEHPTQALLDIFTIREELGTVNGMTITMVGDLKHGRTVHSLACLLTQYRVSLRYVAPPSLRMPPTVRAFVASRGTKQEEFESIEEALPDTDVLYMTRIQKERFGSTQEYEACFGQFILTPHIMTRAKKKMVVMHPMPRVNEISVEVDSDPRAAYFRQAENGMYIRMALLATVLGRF
UniProt Q9QR71: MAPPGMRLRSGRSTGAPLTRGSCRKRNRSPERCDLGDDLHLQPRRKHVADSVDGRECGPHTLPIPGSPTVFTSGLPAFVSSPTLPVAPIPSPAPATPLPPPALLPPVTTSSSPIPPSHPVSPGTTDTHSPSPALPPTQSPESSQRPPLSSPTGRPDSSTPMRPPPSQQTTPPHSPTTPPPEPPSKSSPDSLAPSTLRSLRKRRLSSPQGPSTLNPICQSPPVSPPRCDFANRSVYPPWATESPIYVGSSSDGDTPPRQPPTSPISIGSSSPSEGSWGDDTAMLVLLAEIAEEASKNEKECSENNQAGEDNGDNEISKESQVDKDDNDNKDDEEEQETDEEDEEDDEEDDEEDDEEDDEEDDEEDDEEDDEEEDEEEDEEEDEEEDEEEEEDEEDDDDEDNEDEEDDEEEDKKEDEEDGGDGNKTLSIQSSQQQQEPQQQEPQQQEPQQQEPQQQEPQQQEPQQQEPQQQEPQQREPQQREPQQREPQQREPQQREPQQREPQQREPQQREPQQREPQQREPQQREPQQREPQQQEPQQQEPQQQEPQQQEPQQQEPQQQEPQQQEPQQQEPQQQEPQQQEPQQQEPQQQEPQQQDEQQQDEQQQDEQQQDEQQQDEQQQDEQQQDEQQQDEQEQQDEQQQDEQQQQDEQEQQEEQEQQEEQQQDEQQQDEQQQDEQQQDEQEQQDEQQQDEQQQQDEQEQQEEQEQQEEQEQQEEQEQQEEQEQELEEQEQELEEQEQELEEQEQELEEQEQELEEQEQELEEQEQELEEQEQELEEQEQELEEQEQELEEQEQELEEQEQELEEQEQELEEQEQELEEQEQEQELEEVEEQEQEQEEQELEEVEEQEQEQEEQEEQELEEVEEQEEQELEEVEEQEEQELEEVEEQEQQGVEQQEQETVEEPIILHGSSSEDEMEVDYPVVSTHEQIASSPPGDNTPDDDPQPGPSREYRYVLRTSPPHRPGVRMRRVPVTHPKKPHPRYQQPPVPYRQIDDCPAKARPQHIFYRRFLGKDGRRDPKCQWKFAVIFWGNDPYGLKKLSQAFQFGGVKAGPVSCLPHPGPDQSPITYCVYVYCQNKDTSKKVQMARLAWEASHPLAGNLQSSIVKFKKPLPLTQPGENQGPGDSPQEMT

Assays:
[1] = target: Flag-CDK6 (Cyclin-dependent kinase 6) (UniProt Q00534); experiment: co-IP; 293T cells transfected with Flag-CDK6 with or without vCyclin for 48 h; whole cell lysates precipitated with anti-Flag (CDK6); endogenous CAD detected by immunoblotting
[2] = target: Flag-CAD (Carbamoyl-phosphate synthetase 2, aspartate transcarbamoylase, and dihydroorotase) (UniProt P27708); experiment: co-IP; 293T cells transfected with both expression plasmids for 48 h; whole cell lysates (Triton X-100 or NP40 buffer) precipitated with anti-Flag; immunoblotting
[3] = target: Flag-CDK6 (Cyclin-dependent kinase 6) (UniProt Q00534); experiment: as above
[4] = target: Flag-CAD (Carbamoyl-phosphate synthetase 2, aspartate transcarbamoylase, and dihydroorotase) (UniProt P27708); experiment: as above; remark: listed apart in the source
[5] = target: endogenous CAD (human (endogenous in 293T and BC-3)) (UniProt P27708); experiment: co-IP; endogenous CAD and virally expressed vCyclin; 293T cells infected with KSHV (MOI = 5) for 48 h, whole cell lysates precipitated with IgG or anti-CAD; also the PEL cell line BC-3 harboring KSHV; immunoblotting

endogenous CAD (from UniProt P27708 1-2225) (enzyme)
binding [1]: binds

Myc-LANA (KSHV latent protein) (from UniProt Q9QR71 1-1129)
binding [2]: no binding

V5-CAD (from UniProt P27708 1-2225) (enzyme)
binding [3]: binds

B1: Myc-vCyclin (KSHV vCyclin) (protein, UniProt Q77Q36 1-257)
chain: MATANNPPSGLLDPTLCEDRIFYNILEIEPRFLTSDSVFGTFQQSLTSHMRKLLGTWMFSVCQEYNLEPNVVALALNLLDRLLLIKQVSKEHFQKTGSACLLVASKLRSLTPISTSSLCYAAADSFSRQELIDQEKELLEKLAWRTEAVLATDVTSFLLLKLLGGSQHLDFWHHEVNTLITKALVDPKTGSLPASIISAAGCALLVPANVIPQDTHSGGVVPQLASILGCDVSVLQAAVEQILTSVSDFDLRILDSY
binding [4]: binds

B2: virally expressed vCyclin (protein, UniProt Q77Q36 1-257)
chain: B1 chain
binding [5]: binds
